In article PMC3578790:
No signal at the amounts used counts as a negative. At least one verdict was read from the data and is not stated in words by the source. The exact form of at least one protein or probe is not confirmed. A weaker result is weaker than the reference pair of the same experiment.

Chains of the proteins cited; added tags and fusions are not shown.
UniProt Q9FDW1, whole entry S145A: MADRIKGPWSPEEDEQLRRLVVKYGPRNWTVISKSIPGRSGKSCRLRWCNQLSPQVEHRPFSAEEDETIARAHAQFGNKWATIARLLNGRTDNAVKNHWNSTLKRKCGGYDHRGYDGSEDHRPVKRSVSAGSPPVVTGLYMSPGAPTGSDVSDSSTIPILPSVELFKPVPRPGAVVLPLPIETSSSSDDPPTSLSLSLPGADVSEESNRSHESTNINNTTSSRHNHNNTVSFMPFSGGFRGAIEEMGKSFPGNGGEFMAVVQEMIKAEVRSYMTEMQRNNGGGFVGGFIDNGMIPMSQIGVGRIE
UniProt Q9FDW1, whole entry S145D: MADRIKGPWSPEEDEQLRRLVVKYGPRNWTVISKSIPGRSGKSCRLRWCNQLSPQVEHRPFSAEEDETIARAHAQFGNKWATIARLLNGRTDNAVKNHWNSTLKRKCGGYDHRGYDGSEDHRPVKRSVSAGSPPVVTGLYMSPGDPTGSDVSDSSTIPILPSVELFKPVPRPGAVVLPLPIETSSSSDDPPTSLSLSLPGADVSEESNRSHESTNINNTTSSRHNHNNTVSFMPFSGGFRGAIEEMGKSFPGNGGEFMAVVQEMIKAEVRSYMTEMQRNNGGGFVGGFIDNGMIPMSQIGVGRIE

Experiments:
MYB44 S145A = MYB44 S145A (UniProt Q9FDW1); assay: competition with a labelled probe; conditions: 100-fold excess unlabelled vs labelled MBSII, specificity as wild type; 10 mM Tris pH 8.0, 5 mM MgCl2, 100 mM KCl, 0.02% Triton X-100, 0.1 mg/ml BSA, 0.25% Tween, 2.5 mM DTT, 3 ng/ul poly(dIdC); 30 min room temperature; recombinant protein; residues 1-305; label: none (competitor)
MYB44 S145D = MYB44 S145D (UniProt Q9FDW1); assay: competition with a labelled probe; conditions: 100-fold excess unlabelled vs labelled MBSII, specificity as wild type; 10 mM Tris pH 8.0, 5 mM MgCl2, 100 mM KCl, 0.02% Triton X-100, 0.1 mg/ml BSA, 0.25% Tween, 2.5 mM DTT, 3 ng/ul poly(dIdC); 30 min room temperature; recombinant protein; residues 1-305; label: none (competitor)

Row | Sequence | binding result (MYB44 S145A) | binding result (MYB44 S145D)
1 | AGCTTCAAAAGCCAGCCACG (double strand) [MBSIImut] | no binding | no binding
2 | AGCTTAATGTGTGTCAGTTAGGGTGTCTCG (double strand) [MBSI] | binds more weakly | binds more weakly
